Results: US20180134769A1
Results are given in words; binding and its absence hold for the method and conditions named. Some results given as binding are weak or reduced against the parent protein; the word gives no strength.

Biological target: TcdB-RBD-f1 (Clostridium difficile) (UniProt P18177)
Assay: ELISA, antigen coated; member inferred

B1: B15.5 (VHH)
VHH: QVQLVESGGDLVQAGGSLRLSCAASGSISRISTMGWYRQAPGKQRELVATISTGGTTNYAESVKGRFTVSRDNAKNTMYLQMNSLKPEDTAVYYCAAGWKVVRGSLEYEYSGQGTQVTVSS
binding: binds
